Results are given in words; binding and its absence hold for the method and conditions named. Binding seen in cells or lysates may run through a third protein. Binding calls can cover weak binding; strength is not graded here. Sequences can lack the tags named with a protein.
Molecular target: T1, Flag-USP8 (full-length) (UniProt P40818)
T1 sequence: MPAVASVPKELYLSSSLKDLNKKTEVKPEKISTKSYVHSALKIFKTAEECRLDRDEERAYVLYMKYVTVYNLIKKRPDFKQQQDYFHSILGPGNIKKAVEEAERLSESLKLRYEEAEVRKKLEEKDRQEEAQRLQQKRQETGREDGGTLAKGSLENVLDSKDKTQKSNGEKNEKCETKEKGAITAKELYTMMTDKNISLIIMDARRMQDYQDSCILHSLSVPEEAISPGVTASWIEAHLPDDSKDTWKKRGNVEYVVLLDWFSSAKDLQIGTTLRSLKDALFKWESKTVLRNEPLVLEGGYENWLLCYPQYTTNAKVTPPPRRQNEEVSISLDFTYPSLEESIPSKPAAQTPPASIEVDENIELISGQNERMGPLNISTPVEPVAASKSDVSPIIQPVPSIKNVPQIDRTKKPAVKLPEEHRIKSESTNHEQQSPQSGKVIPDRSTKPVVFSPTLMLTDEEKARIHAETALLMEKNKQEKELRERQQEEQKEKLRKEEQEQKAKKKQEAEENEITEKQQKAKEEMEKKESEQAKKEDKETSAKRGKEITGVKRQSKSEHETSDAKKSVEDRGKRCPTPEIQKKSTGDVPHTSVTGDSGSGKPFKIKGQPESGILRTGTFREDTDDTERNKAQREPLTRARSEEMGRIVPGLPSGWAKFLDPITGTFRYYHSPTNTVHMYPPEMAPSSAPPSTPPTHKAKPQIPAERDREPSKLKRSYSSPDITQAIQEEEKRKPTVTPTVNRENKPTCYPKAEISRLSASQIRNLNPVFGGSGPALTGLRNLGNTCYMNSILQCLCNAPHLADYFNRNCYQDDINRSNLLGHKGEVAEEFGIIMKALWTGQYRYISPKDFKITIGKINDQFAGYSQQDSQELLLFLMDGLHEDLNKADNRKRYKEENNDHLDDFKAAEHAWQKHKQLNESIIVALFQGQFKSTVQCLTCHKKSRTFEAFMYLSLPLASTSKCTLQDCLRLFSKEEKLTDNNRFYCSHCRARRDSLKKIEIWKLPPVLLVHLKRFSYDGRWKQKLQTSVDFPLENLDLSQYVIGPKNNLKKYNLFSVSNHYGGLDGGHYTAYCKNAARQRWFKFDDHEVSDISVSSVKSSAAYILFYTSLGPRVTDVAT
Experiment: co-IP; HEK293 cells transfected with Myc-OGT full-length or deletion mutants and 2 μg Flag-USP8, NP-40 lysis buffer after 24 h, Flag antibody for co-IP, Myc antibody for detection

Row | Substance | binding
1 | OGT GT domain, Myc-tagged deletion mutant (domain or fragment) | binds
2 | OGT TPR domain, Myc-tagged deletion mutant (domain or fragment) | binds

From article PMC11229306
